PubChem BioAssay AID743121, NCATS | 2013

Screen: 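Knock-downs that sensitise breast cancer cells to camptothecin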 (primary screen)
Cells: MDA-MB-231 cells, a human breast cancer line
Knock-down reagent: single siRNA against human genes, 20 nM siRNA (0.8 pmol per well)
Time to read-out: 120 h (drug added 48 h after transfection, read 72 h later)
Conditions: camptothecin 20 nM (about EC30) for 72 h; vehicle 0.1% DMSO in parallel plates
Read-out: 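CellTiter-Glo ATP signal, scaled to control siRNA as percent viability; sensitisation given as log2 of untreated divided by camptothecin-treated viability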
Reading the numbers: log2 vehicle/camptothecin viability: higher = stronger sensitisation to camptothecin; viability with camptothecin: higher = more viable cells
Hit rule: 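Active genes have an RSA gene-level p-value below 0.001, computed from the ratios of their separate siRNAs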
In all, the deposit lists about 26,000 reagents; below is a random part of them. 167 of all reagents (0.63%) were called active. 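Calls are per gene from RSA p-values that are not deposited; an individual active-marked siRNA can sensitise only weakly.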 Entries without a mark were called inactive. Reagents against one gene are numbered here. Not all columns of the deposit are shown. Reagent sequences are not shown.

gene	reagent no.	log2 vehicle/camptothecin viability	viability with camptothecin (% of control)
TNFSF15 (TNF superfamily member 15)	1	-0.207	87.6
TNFSF15 (TNF superfamily member 15)	2	-0.0673	85.2
TNFSF15 (TNF superfamily member 15)	3	-0.213	71.2
TNFSF15 (TNF superfamily member 15)	4	-0.117	83.7
DNMT3L (DNA methyltransferase 3 like)	1	-0.385	59.1
DNMT3L (DNA methyltransferase 3 like)	2	0.296	65.9
DNMT3L (DNA methyltransferase 3 like)	3	-0.391	62.4
DNMT3L (DNA methyltransferase 3 like)	4	-0.559	47.6
GPR50 (G protein-coupled receptor 50)	1	-0.13	91.6
GPR50 (G protein-coupled receptor 50)	2	0.0394	84.4
GPR50 (G protein-coupled receptor 50)	3	0.176	48.1
GPR50 (G protein-coupled receptor 50)	4	-0.279	86.4
ACVR2B (activin A receptor type 2B)	1	-0.0436	66
ACVR2B (activin A receptor type 2B)	2	-0.0358	53.7
ACVR2B (activin A receptor type 2B)	3	0.467	48
ACVR2B (activin A receptor type 2B)	4	0.153	12.9
TLL2 (tolloid like 2)	1	-0.0949	61.4
TLL2 (tolloid like 2)	2	-0.0342	74.1
TLL2 (tolloid like 2)	3	-0.0793	102
TLL2 (tolloid like 2)	4	0.0964	44.5
PTPRD (protein tyrosine phosphatase receptor type D)	1	-0.33	108
PTPRD (protein tyrosine phosphatase receptor type D)	2	0.0832	88.8
PTPRD (protein tyrosine phosphatase receptor type D)	3	-0.354	72.1
PTPRD (protein tyrosine phosphatase receptor type D)	4	-0.286	62.1

Sorted by “viability with camptothecin (% of control)” (descending): 8 of the entries above
gene	reagent no.	log2 vehicle/camptothecin viability	viability with camptothecin (% of control)
GPR50 (G protein-coupled receptor 50)	1	-0.13	91.6
GPR50 (G protein-coupled receptor 50)	4	-0.279	86.4
GPR50 (G protein-coupled receptor 50)	2	0.0394	84.4
DNMT3L (DNA methyltransferase 3 like)	2	0.296	65.9
DNMT3L (DNA methyltransferase 3 like)	3	-0.391	62.4
DNMT3L (DNA methyltransferase 3 like)	1	-0.385	59.1
GPR50 (G protein-coupled receptor 50)	3	0.176	48.1
DNMT3L (DNA methyltransferase 3 like)	4	-0.559	47.6

The listing continues.
gene	reagent no.	log2 vehicle/camptothecin viability	viability with camptothecin (% of control)
MLF1 (myeloid leukemia factor 1)	1	0.135	89.7
MLF1 (myeloid leukemia factor 1)	2	-0.281	128
MLF1 (myeloid leukemia factor 1)	3	-0.0107	108
PRKAB1 (protein kinase AMP-activated non-catalytic subunit beta 1)	1	-0.156	108
PRKAB1 (protein kinase AMP-activated non-catalytic subunit beta 1)	2	0.128	104
PRKAB1 (protein kinase AMP-activated non-catalytic subunit beta 1)	3	0.115	71.3
PRKAB1 (protein kinase AMP-activated non-catalytic subunit beta 1)	4	-0.484	36.3
TICAM2 (TIR domain containing adaptor molecule 2)	1	-0.563	33.2
TICAM2 (TIR domain containing adaptor molecule 2)	2	0.298	37.3
TICAM2 (TIR domain containing adaptor molecule 2)	3	-0.0725	30.3
TICAM2 (TIR domain containing adaptor molecule 2)	4	-0.407	84.3
DGKH (diacylglycerol kinase eta)	1	-0.0854	84.2
DGKH (diacylglycerol kinase eta)	2	-0.0227	85.9
DGKH (diacylglycerol kinase eta)	3	-0.981	68.9
DGKH (diacylglycerol kinase eta)	4	-0.254	67.3
COQ5 (coenzyme Q5, methyltransferase)	1	-0.434	56.5
COQ5 (coenzyme Q5, methyltransferase)	2	-0.251	84.7
COQ5 (coenzyme Q5, methyltransferase)	3	-0.101	95.2
COQ5 (coenzyme Q5, methyltransferase)	4	-0.313	87.4
INF2 (inverted formin 2)	1	1.24	2.74
INF2 (inverted formin 2)	2	-0.366	98.1
INF2 (inverted formin 2)	3	-0.58	85.5
INF2 (inverted formin 2)	4	-0.341	83
INF2 (inverted formin 2)	5	0.719	11
INF2 (inverted formin 2)	6	-0.209	118
INF2 (inverted formin 2)	7	0.0165	77.8
INF2 (inverted formin 2)	8	-0.202	103
